# Experimental data taken from publication doi:10.1101/2022.12.25.521893 (bioRxiv, 2022).
# Results are given in words; binding and its absence hold for the method and conditions named. Binding can be weak; no strength is given.
# B1: endogenous E. coli lipoprotein YbjP (protein, UniProt P75818 19-171)
# chain: CTTVTPAYKDNGTRSGPCVEGGPDNVAQQFYDYRILHRSNDITALRPYLSDKLATLLSDASRDNNHRELLTNDPFSSRTTLPDSAHVASASTIPNRDARNIPLRVDLKQGDQGWQDEVLMIQEGQCWVIDDVRYLGGSVHATAGTLRQSIENR
# Target: LptDE complex from Pseudomonas aeruginosa with a hexahistidine tag on LptE (Pseudomonas aeruginosa)
# Assay: native MS
binder,measurement,value
B1,binding,binds
